The values below come from paper PMC4029751.

Sequences of proteins named here, by UniProt entry; tags and fusion partners are left off. A change or cut given only in a name is not applied to a line headed by its entry.
UniProt S0BEC9: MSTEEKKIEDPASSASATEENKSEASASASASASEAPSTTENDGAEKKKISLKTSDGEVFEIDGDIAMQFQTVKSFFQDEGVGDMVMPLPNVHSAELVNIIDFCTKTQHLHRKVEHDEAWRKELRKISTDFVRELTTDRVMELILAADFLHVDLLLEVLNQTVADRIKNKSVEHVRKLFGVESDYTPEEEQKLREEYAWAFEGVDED

These are yes or no findings as the source states them, for the method shown. Binding seen in cells or lysates may run through a third protein. Binding can be weak; no strength is given.

The target in assay [1] is GST-fused MdSBP1 (Malus × domestica (apple)) (UniProt U6C5A1). Put plainly: pull-down; GST fusions (crude proteins from E. coli) on Glutathione Sepharose 4B; incubated with wheat-germ translation products of FLAG-tagged MdCUL1s at 4°C for 2 hours; eluted with 2 × SDS loading buffer; anti-FLAG blot; only the target purified.
Assay [2] has as its target GST-fused MdSSK1 (Malus × domestica (apple)) (UniProt S0BEC9). The assay is described as above.

As for “FLAG-tagged MdCUL1A (from UniProt A0A060PJX1)”, the binding result in assay [1] and in assay [2] was “binds” throughout.

“FLAG-tagged MdCUL1B (from UniProt A0A060PMD9)”: the binding result is “binds” in assay [1] and “no binding” in assay [2].
